The list shows a part of the results. These are further read-outs of the screen, such as a control signal, another cell line or another target. No call is given for them. The list favours compounds with an active or inconclusive main result. Potencies come from curve fits of mixed quality, noted in brackets.
Assay: qHTS Assay to Find Inhibitors of Chronic Active B-Cell Receptor Signaling
Settings: ABC-DLBCL IkBa-CBG/CBR reporter, luminescence ratio (green luciferase fused to IkBa over red control in TMD8 lymphoma cells), 4 h
How it was run: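 Concentration-response series (up to 46 uM) were applied to TMD8 dual-reporter cells for 4 h at 37C with doxycycline. Green/red ratio, after filter-overlap correction, defined %Activity; red signal alone was normalised to basal cells and zero luminescence.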

[1] = measured here: CBR red luminescence, cell number

| SMILES | AC50 [1] | AC50 (measured here: IkBa-CBG green luminescence) |
| --- | --- | --- |
| COCc1nnc(NC(=O)C(C)C)s1 | 4.11 µM [rising, full curve, poor fit] |  |
| O=C(Nc1ccc2c3c(cccc13)CC2)c1cccc([N+](=O)[O-])c1 | 18.4 µM [rising, partial curve] |  |
| COc1ccccc1CNC(=O)COC(=O)c1cccc(-n2cnnn2)c1 | 0.517 µM [rising, full curve, poor fit] |  |
| Cc1ccc(N2C(=O)CS(=O)C(c3ccccc3)C2=O)cc1C (centres undefined) | 14.1 µM [falling, single point] |  |
| CCOc1cc(-c2noc(CCC(=O)Nc3cccnc3)n2)ccc1OC | 35.5 µM [falling, single point] |  |
| Cc1ccc(S(=O)(=O)N2CCN(C(=O)CSC3CCCC3)CC2)c(C)c1 | 6.51 µM [rising, single point] | 4.11 µM [falling, partial curve, poor fit] |
| C/C(=N\NS(C)(=O)=O)c1ccc(C)cc1 | 0.731 µM [rising, full curve, poor fit] |  |
| COc1ccc(S(=O)(=O)Nc2cccc(-c3ccc(N4CCCCCC4)nn3)c2)c(OC)c1 | 7.94 µM [rising, partial curve] |  |
| COc1ccc(CC(=O)NNc2ncnc3c2cnn3-c2ccc(C)cc2)cc1 | 18.4 µM [falling, single point] |  |
| O=C(COC(=O)c1cc([N+](=O)[O-])ccc1NCc1ccccc1)NCc1ccccc1Cl | 10.3 µM [rising, partial curve, poor fit] |  |
| O=C(CN1CCN(Cc2ccc(F)cc2)C1=O)NC1CCCC1 | 2.82 µM [rising, partial curve, poor fit] |  |
| COCC(=O)Nc1nnc(CCc2ccccc2)s1 | 3.16 µM [rising, full curve] |  |
| Cc1ccc2c(c1)CCCN2C(=O)c1cc2ccccc2oc1=O | 8.2 µM [rising, partial curve, poor fit] |  |
| Cc1cc(C)c2nc(NC(=O)c3ccc([N+](=O)[O-])o3)sc2c1 | 2.82 µM [falling, partial curve, poor fit] |  |
| CCOC(=O)Cn1nnnc1C(CC)N(Cc1cccs1)Cc1cc2ccc(OC)cc2[nH]c1=O (centres undefined) | 14.1 µM [falling, single point] |  |
| Cc1ccc(CN2C(=O)C3CCCN3c3ncccc32)cc1 (centres undefined) | 35.5 µM [rising, single point] |  |
| CCOC(=O)Cn1c(=O)n(Cc2ccco2)c(=O)c2ccc(C(=O)NCCc3ccccc3)cc21 | 3.16 µM [rising, single point] |  |
| Cc1cccc(/N=C/c2sc3ccccc3c2O)n1 | 4.47 µM [falling, partial curve, poor fit] |  |

3 compounds from above, sorted by formula weight, low to high.

| SMILES | AC50 [1] | AC50 (measured here: IkBa-CBG green luminescence) |
| --- | --- | --- |
| COCC(=O)Nc1nnc(CCc2ccccc2)s1 | 3.16 µM [rising, full curve] |  |
| Cc1ccc2c(c1)CCCN2C(=O)c1cc2ccccc2oc1=O | 8.2 µM [rising, partial curve, poor fit] |  |
| CCOC(=O)Cn1c(=O)n(Cc2ccco2)c(=O)c2ccc(C(=O)NCCc3ccccc3)cc21 | 3.16 µM [rising, single point] |  |
